Screen size: about 330,000 compounds; about 610 (0.18%) were called active. Inconclusive means that the source gave no clear call. Such entries were picked first, then a sample of the others. Calls come from the whole dose curve. Potencies beside an inconclusive call are fits to weak or partial responses and may not hold up.
experiment: qHTS of Yeast-based Assay for SARS-CoV PLP; note: nearly all actives have a fitted effect of over 55% in size; details: S. cerevisiae expressing SARS-CoV PLpro; Potency: growth rescue; series mostly up to 32.9 µM
Potency is the fitted concentration of half-maximal effect.

SMILES | Potency
Cc1cc(C(=O)COC(=O)c2cc(Cl)c(O)c(Cl)c2)c(C)n1C | inactive
CCCCC(=O)NC(c1ccc(N(CC)CC)cc1)c1ccc2cccnc2c1O (stereo not given) | active: 3.98 µM
O=C(NC(=O)c1ccc(Cl)cc1)Nc1ccc(-c2cnco2)cc1 | inactive
COc1ccc(C2C(C(=O)N3CCOCC3)=C(C)NC3=C2C(=O)CC(C)(C)C3)c(OC)c1 (stereo not given) | inconclusive: 3.55 µM [activator, single point]
Cc1ccc(-n2nnnc2SCC(=O)NNC(=O)c2ccco2)cc1C | inconclusive: 2.24 µM [activator, single point]
CCOC(=O)COc1ccc(S(=O)(=O)NCC2CCCO2)cc1 (stereo not given) | inconclusive: 2 µM [activator, full curve, poor fit]
CC(C)C(=O)NC(c1cccc([N+](=O)[O-])c1)c1ccc2cccnc2c1O (stereo not given) | active: 3.16 µM
COCCCN=C1NN=C(c2cc(C)n(-c3ccccc3)c2C)CS1 | inconclusive: 14.1 µM [activator, partial curve]
COc1cccc(C2CC(c3cccs3)=NN2C(=O)CSC2=NN3CCCC(=O)N=C3S2)c1OC (stereo not given) | inactive
COC(=O)c1ccc(C(=O)N(Cc2ccccc2)c2ccccc2)cc1 | inconclusive: 0.631 µM [activator, full curve]
O/N=C1\CCC2CN(C3CCCCC3)CC2C1 (stereo not given) | inconclusive: 3.55 µM [activator, single point]
COc1ccc(CC(=O)Nc2nc3ccccc3s2)cc1S(=O)(=O)N1CCOCC1 | inconclusive: 3.16 µM [activator, single point]
CCOc1ccc(N(CC(=O)N/N=C/c2cc([N+](=O)[O-])ccc2Cl)S(C)(=O)=O)cc1 | inconclusive: 0.316 µM [activator, partial curve, poor fit]
Cn1cnnc1SC1c2cccc3cccc(c23)C1NS(=O)(=O)c1ccc(Cl)cc1 (stereo not given) | inconclusive: 4.47 µM [activator, single point]
CN1C2CCC1CC(OC(=O)c1ccc(Cl)cc1)C2 (stereo not given) | inconclusive: 20 µM [activator, single point]
Cc1cccc2sc(NNC(=O)c3ccc(S(=O)(=O)N4CCc5ccccc5C4)cc3)nc12 | active: 10 µM
CCCCn1c(N2CCC(Cc3ccccc3)CC2)nc2c1c(=O)[nH]c(=O)n2C | inactive
Cc1ccc2nc3c(cc(C(=O)NCCN4CCOCC4)c(=N)n3CCCN3CCOCC3)c(=O)n2c1 | inactive
O=C(NC1CCCCC1)C(c1ccccc1F)N(C(=O)c1csnn1)C1CCCC1 (stereo not given) | inactive
NS(=O)(=O)c1ccc(NC2=CC(c3ccc([N+](=O)[O-])cc3)N(c3ccc(S(N)(=O)=O)cc3)C2=O)cc1 (stereo not given) | inactive
CCOC(=O)[C@@H]1[C@H]2COc3cc(OC)ccc3[C@@H]2N2C(=O)N(c3ccccc3)C(=O)[C@]12C | inactive
CCc1ccc(/C=C(\C)C(=O)c2c(C)cc(C)[nH]c2=O)cc1 | inactive
Cc1ccc(NC(=O)CCn2nc(C)cc2C)c(C)c1 | inconclusive: 20 µM [activator, single point]

Pulled by compound from the entries so far:
SMILES | Potency
COCCCN=C1NN=C(c2cc(C)n(-c3ccccc3)c2C)CS1 | inconclusive: 14.1 µM [activator, partial curve]
CC(C)C(=O)NC(c1cccc([N+](=O)[O-])c1)c1ccc2cccnc2c1O (stereo not given) | active: 3.16 µM
Cn1cnnc1SC1c2cccc3cccc(c23)C1NS(=O)(=O)c1ccc(Cl)cc1 (stereo not given) | inconclusive: 4.47 µM [activator, single point]

Further records.

SMILES | Potency
COc1ccc(C(=O)Nc2ccc3nc4n(c(=O)c3c2)CCCC4)cc1[N+](=O)[O-] | inconclusive: 17.8 µM [activator, partial curve]
O=C(NCC(=O)N(CCc1ccccc1)C(C(=O)NC1CCCCC1)c1ccncc1)c1ccco1 (stereo not given) | inactive
O=C(Nc1ccccc1Oc1cccnc1)C1CCCN(C/C=C/c2ccc(F)cc2)C1 (stereo not given) | inconclusive: 20 µM [activator, single point]
O=C(Cn1c(COc2ccc(Cl)cc2)nc2ccccc21)NCC(F)(F)F | inconclusive: 20 µM [activator, single point]
Cc1noc(C)c1S(=O)(=O)Nc1ccccc1Cl | inconclusive: 3.16 µM [activator, single point]
O=C(NCCCO)/C(=C\c1cn(-c2ccccc2)nc1-c1cccnc1)NC(=O)c1ccccc1 | inconclusive: 1.41 µM [activator, partial curve]
O=C(Nc1nnc(C2CC2)s1)C1CCCCN1S(=O)(=O)c1ccccc1 (stereo not given) | inactive
CCOCC(=O)Nc1ccc(S(=O)(=O)Nc2nccs2)cc1 | inactive
COc1cccc(CN2C(=NC(=O)C3CC3)SC3CS(=O)(=O)CC32)c1 (stereo not given) | inconclusive: 0.398 µM [activator, full curve, poor fit]
CCOC(=O)/C=C/c1cnn(-c2ccccc2)c1 | inconclusive: 5.01 µM [activator, partial curve]
CCOc1nnc(C)c2c(C)n(-c3ccc(Cl)cc3)nc12 | inconclusive: 4.47 µM [activator, single point]
O=C(NCc1cccnc1)C(=O)NCC(c1ccco1)N1CCN(c2ccc(F)cc2)CC1 (stereo not given) | inconclusive: 2.82 µM [activator, partial curve]
COc1cc(NC(=O)C2=CC(c3cccs3)=NS(=O)(=O)N2C)cc(OC)c1OC | inconclusive: 4.47 µM [activator, single point]
O=C(CCl)Nc1ccc(S(=O)(=O)NC2=NCCCCC2)cc1 | inactive
CCOc1ccc(CCNC(=O)Cc2ccc(NC(=O)C3=C(C)OCCS3)cc2)cc1 | inactive
CCCCC(=O)Nc1ccc(N2CCN(C(=O)c3ccco3)CC2)cc1 | inconclusive: 3.55 µM [activator, single point]
COc1ccc(NC(=O)c2ccc(C)cc2Cl)c([N+](=O)[O-])c1 | inconclusive: 4.47 µM [activator, single point]
Cc1cc(C(=O)N2CCN(C/C=C/c3ccccc3)CC2)cs1 | inconclusive: 14.1 µM [activator, single point]
CCN(CC)C(=S)SC1CCCCN(C(=O)c2ccc(F)cc2)C1=O (stereo not given) | inactive
CC1(C)Cc2cccc(OCC(=O)N3CCN(c4ccccc4)CC3)c2O1 | inconclusive: 6.31 µM [activator, partial curve]
CCCC(=O)Nc1nc(C)c(-c2csc(Nc3ccccc3OC)n2)s1 | inconclusive: 20 µM [activator, single point]
CC(C)(C)n1ncc2c(=O)n(CC(=O)NCc3ccc(F)cc3)cnc21 | inconclusive: 4.47 µM [activator, partial curve]

From PubChem BioAssay AID485353 (National Center for Advancing Translational Sciences (NCATS), 2010)
